The values that follow come from the supplement of paper PMC4604168 (melanoma cell lines).

The list shows a part of the results. Repeats are few or missing, and single values can be far off.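 Cells were imaged in 1,536-well plates, and nuclei stained with an antibody against cleaved PARP were counted against all DNA-stained nuclei to give the apoptosis fraction. Screening doses were chosen to leave most cells alive, and resting and induced cleaved-PARP levels differ strongly between cell lines.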

In this assay the test system is WM451Lu. The assay can be described thus: cleaved PARP positive nuclei fraction relative to DMSO control; melanoma cells; higher = more apoptosis. The note with it: library dose: low library concentration; 72 h.
Turning to `O=C(/C=C/c1cccnc1)NCCCCC1CCN(C(=O)c2ccccc2)CC1` + O=C(Nc1ccccc1)c1cc([N+](=O)[O-])ccc1Cl [GW9662] (first compound 0.01 µM, partner dose 2 µM), the “cleaved PARP positive nuclei fraction” value was 59.3%.
Under `CC[C@]1(O)C[C@H]2CN(CCc3c([nH]c4ccccc34)[C@@](C(=O)OC)(c3cc4c(cc3OC)N(C=O)[C@H]3[C@@](O)(C(=O)OC)[C@H](OC(C)=O)[C@]5(CC)C=CCN6CC[C@]43[C@@H]65)C2)C1` [vincristine] + O=c1cc(-c2cccc3c2Sc2ccccc2S3)oc(N2CCOCC2)c1 [KU55933] (first compound 0.0001 µM, partner dose 1 µM) stands 496%; under `N#CC[C@H](C1CCCC1)n1cc(-c2ncnc3[nH]ccc23)cn1` [ruxolitinib] + NCC(=O)Nc1ccc(-n2nc(C(F)(F)F)cc2-c2ccc3c(ccc4ccccc43)c2)cc1 [OSU03012] (first compound 1 µM, partner dose 1 µM), 199%.
Under `O=c1[nH]nc(Sc2ncc([N+](=O)[O-])s2)n1-c1ccc2c(c1)OCCO2` + CC(C)CCN1c2nc(Nc3cc(F)c(O)c(F)c3)ncc2N(C)C(=O)C1C [BID1870] (first compound 0.2 µM, partner dose 0.2 µM) stands 154%; under `Cc1cn(-c2cc(NC(=O)c3ccc(C)c(Nc4nccc(-c5cccnc5)n4)c3)cc(C(F)(F)F)c2)cn1` [nilotinib] + O=C(Nc1cccc(Cl)c1)Nc1ncc(CCNc2ncnc3ccsc23)s1 [SNS314] (first compound 0.2 µM, partner dose 0.0008 µM), 100%; under `Cc1ccc(Nc2nccc(N(C)c3ccc4c(C)n(C)nc4c3)n2)cc1S(N)(=O)=O` [Pazopanib] + O=S(=O)(c1ccccc1)N(CC(F)(F)F)c1ccc(C(O)(C(F)(F)F)C(F)(F)F)cc1 [T0901317] (first compound 0.4 µM, partner dose 1.4 µM), 132%.
Under `CCCCCCCCCCCCCCCCCCOP(=O)([O-])OC1CC[N+](C)(C)CC1` [Perifosine] + CC(C)(C)c1cnc(CSc2cnc(NC(=O)C3CCNCC3)s2)o1 [SNS-032] (first compound 0.4 µM, partner dose 0.01 µM) stands 44.6%.
